{"source": "PubChem BioAssay AID652243 (Drosophila RNAi Screening Center, 2013)", "test": "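Fly genes required for human androgen receptor driven transcription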 (primary screen)", "system": "Drosophila S2R+ cells", "knock-down reagent": "long dsRNA against Drosophila genes", "timing": "72 h (48 h, then 24 h hormone)", "challenge": "synthetic androgen R1881 at 10 nM for 24 h", "measurement": "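Per-well raw luminescence of the androgen-driven firefly reporter and of the Renilla control, two replicates each, without normalisation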", "scale": "firefly reporter light: higher = more light from androgen-responsive reporter; Renilla control light: higher = more constitutive control signal (cell number, transfection)", "hit rule": "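Across duplicate plates, a knock-down whose log firefly/Renilla ratio shifted a set fold down or up from the GFP/LacZ control mean was a hit; the downward cut appears as both 1.5 and 3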", "calls": "active = hit: reporter lowered or raised; inactive = no hit", "note": "In all, the deposit lists about 24,000 reagents; shown is a random part of those with a known target gene and a result. Over the whole deposit, 246 (1%) are marked active. 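Plates not normalised; calls are printed but the firefly/Renilla ratio behind them is not deposited; fold cut for lowering reported inconsistently.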 The raw values are shown without normalisation. Not stated in the record: the amount of reagent."}
{"target gene": "CG6656", "dsRNA": "DRSC16085", "firefly reporter light, replicate 1": 92957, "firefly reporter light, replicate 2": 96845, "Renilla control light, replicate 1": 9.59e5, "Renilla control light, replicate 2": 8.84e5, "Call": "inactive"}
{"target gene": "CG6656", "dsRNA": "DRSC36947", "Call": "inactive"}
{"target gene": "CG6656", "dsRNA": "DRSC36948", "Call": "inactive"}
{"target gene": "CG14247", "dsRNA": "DRSC14742", "firefly reporter light, replicate 1": 2.25e5, "firefly reporter light, replicate 2": 2.35e5, "Renilla control light, replicate 1": 3.52e6, "Renilla control light, replicate 2": 3.67e6, "Call": "inactive"}
{"target gene": "CG14247", "dsRNA": "DRSC24048", "firefly reporter light, replicate 1": 8.75e5, "firefly reporter light, replicate 2": 8.69e5, "Renilla control light, replicate 1": 9.27e5, "Renilla control light, replicate 2": 9.85e5, "Call": "inactive"}
{"target gene": "ebi", "dsRNA": "DRSC00816", "firefly reporter light, replicate 1": 8.39e5, "firefly reporter light, replicate 2": 9.84e5, "Renilla control light, replicate 1": 2.86e6, "Renilla control light, replicate 2": 1.96e6, "Call": "inactive"}
{"target gene": "srp", "dsRNA": "DRSC23166", "firefly reporter light, replicate 1": 7.56e5, "firefly reporter light, replicate 2": 8.75e5, "Renilla control light, replicate 1": 1.23e6, "Renilla control light, replicate 2": 1.27e6, "Call": "inactive"}
{"target gene": "srp", "dsRNA": "DRSC29336", "firefly reporter light, replicate 1": 2.16e5, "firefly reporter light, replicate 2": 2.88e5, "Renilla control light, replicate 1": 1.16e6, "Renilla control light, replicate 2": 1.16e6, "Call": "inactive"}
{"target gene": "igl", "dsRNA": "DRSC07631", "firefly reporter light, replicate 1": 1.21e6, "firefly reporter light, replicate 2": 8.39e5, "Renilla control light, replicate 1": 2.79e6, "Renilla control light, replicate 2": 2.43e6, "Call": "inactive"}
{"target gene": "igl", "dsRNA": "DRSC28961", "firefly reporter light, replicate 1": 6.06e5, "firefly reporter light, replicate 2": 5.50e5, "Renilla control light, replicate 1": 1.85e6, "Renilla control light, replicate 2": 1.52e6, "Call": "inactive"}
{"target gene": "Optix", "dsRNA": "DRSC05078", "firefly reporter light, replicate 1": 3.58e5, "firefly reporter light, replicate 2": 3.31e5, "Renilla control light, replicate 1": 2.08e6, "Renilla control light, replicate 2": 2.36e6, "Call": "inactive"}
{"target gene": "Optix", "dsRNA": "DRSC07484", "firefly reporter light, replicate 1": 9.89e5, "firefly reporter light, replicate 2": 7.19e5, "Renilla control light, replicate 1": 1.51e6, "Renilla control light, replicate 2": 1.55e6, "Call": "inactive"}
{"target gene": "Optix", "dsRNA": "DRSC21963", "firefly reporter light, replicate 1": 4.16e5, "firefly reporter light, replicate 2": 5.16e5, "Renilla control light, replicate 1": 1.54e6, "Renilla control light, replicate 2": 1.65e6, "Call": "inactive"}
{"target gene": "Optix", "dsRNA": "DRSC29089", "firefly reporter light, replicate 1": 4.70e5, "firefly reporter light, replicate 2": 3.55e5, "Renilla control light, replicate 1": 1.26e6, "Renilla control light, replicate 2": 1.46e6, "Call": "inactive"}

2 entries from above, reduced to “firefly reporter light, replicate 2”:
igl [DRSC07631]: 8.39e5
igl [DRSC28961]: 5.50e5

More records follow:
{"target gene": "CG16815", "dsRNA": "DRSC02521", "firefly reporter light, replicate 1": 1.36e5, "firefly reporter light, replicate 2": 1.67e5, "Renilla control light, replicate 1": 1.53e6, "Renilla control light, replicate 2": 1.57e6, "Call": "inactive"}
{"target gene": "CG16815", "dsRNA": "DRSC28136", "firefly reporter light, replicate 1": 3.96e5, "firefly reporter light, replicate 2": 2.79e5, "Renilla control light, replicate 1": 1.21e6, "Renilla control light, replicate 2": 8.90e5, "Call": "inactive"}
{"target gene": "CG3527", "dsRNA": "DRSC18307", "firefly reporter light, replicate 1": 3.09e5, "firefly reporter light, replicate 2": 2.53e5, "Renilla control light, replicate 1": 4.03e6, "Renilla control light, replicate 2": 3.52e6, "Call": "inactive"}
{"target gene": "CG3527", "dsRNA": "DRSC28450", "firefly reporter light, replicate 1": 4.84e5, "firefly reporter light, replicate 2": 6.10e5, "Renilla control light, replicate 1": 8.85e5, "Renilla control light, replicate 2": 1.26e6, "Call": "inactive"}
{"target gene": "CG33927", "dsRNA": "DRSC37831", "firefly reporter light, replicate 1": 1.27e6, "firefly reporter light, replicate 2": 1.17e6, "Renilla control light, replicate 1": 1.77e6, "Renilla control light, replicate 2": 1.72e6, "Call": "inactive"}
{"target gene": "CG5111", "dsRNA": "DRSC15717", "firefly reporter light, replicate 1": 1.99e5, "firefly reporter light, replicate 2": 2.61e5, "Renilla control light, replicate 1": 2.06e6, "Renilla control light, replicate 2": 1.94e6, "Call": "inactive"}
{"target gene": "CCT1", "dsRNA": "DRSC16877", "firefly reporter light, replicate 1": 2.57e5, "firefly reporter light, replicate 2": 2.70e5, "Renilla control light, replicate 1": 2.95e6, "Renilla control light, replicate 2": 2.61e6, "Call": "inactive"}
{"target gene": "CCT1", "dsRNA": "DRSC26661", "firefly reporter light, replicate 1": 2.53e5, "firefly reporter light, replicate 2": 2.49e5, "Renilla control light, replicate 1": 6.73e5, "Renilla control light, replicate 2": 5.01e5, "Call": "inactive"}
